Results are given in words; binding and its absence hold for the method and conditions named. Binding calls can cover weak binding; strength is not graded here.
Molecular target: TCRvβ 6-5 expressed on cells (TCRvβ 6-5+ Jurkat cells; human T cells) (human)
Assay: flow cytometry on TCRvβ 6-5+ Jurkat cells, detection with anti-human Fc-AF647

B1: BJM0387 (bispecific antibody, not shown: a dimerising Fc or GST; large carriers)
heavy: QVQLVQSGAEVKKPGSSVKVSCKASGYSFTTYYIHWVRQAPGQGLEWMGWFFPGSGNIKYNEKFKGRVTITADTSTSTAYMELSSLRSEDTAVYYCAGSYYSYDVLDYWGQGTTVTVSSGGGGSGGGGSGGGGSGGGGSDIQMTQSPSFLSASVGDRVTITCKASQNVGINVVWHQQKPGKAPKALIYSSSHRYSGVPSRFSGSGSGTEFTLTISSLQPEDFATYFCQQFKSYPLTFGQGTKLEIKGGGGSQVQLVQSGAEVKKPGSSVKVSCKASGYTFTDYNMHWVRQAPGQGLEWIGYIYPYNGGTGYNQKFKSKATITADESTNTAYMELSSLRSEDTAVYYCARGRPAMDYWGQGTLVTVSS
light: DIQMTQSPSSLSASVGDRVTITCRASESVDNYGISFMNWFQQKPGKAPKLLIYAASNQGSGVPSRFSGSGSGTDFTLTISSLQPDDFATYYCQQSKEVPWTFGQGTKVEIK
  binding: binds
